Reference: patent publication US20190161551A1
These are yes or no findings as the source states them, for the method shown. Some binding calls cover weakened binding; strength is not graded here.

B1: M2aM14173N (antibody, mouse IgG2a, kappa, V domains shown)
VH: NVSLVESGGGSVKPGGSLQLSCAASGFTFSSSAMSWIRQTPEMRLEWVATISDRGSYTYYPDSVEGRFTISRDNAKNILYLQMSHLMSEDTAMYYCARGKGEKAYYTAFFAYWGQGSLVTVSA
VL: DIQMTQSPASLSASVGETVTITCRASENIYSYLAWYQQKPGKSPHLLVHNAETLAEGVPSRFSGSGSGPQFSLKINSLQPGDSGTYYCQHHYSSPWTFGGGTKLEIKR
B2: M2aM14179N (antibody, mouse IgG2a, kappa, V domains shown)
VH: EVQLQQSGPELVKPGASVKISCKASGYTLTDYYMNWVKQSHGKSLEWIGDINPNNGGTSYNQKFKGKATLTVDKSSSTAYMELRSLTSEDSAVYYCARGAYYSNYFDYWGQGTTLTVSS
VL: DIVMSQSPSSLAVSAGEKVTMSCKSSQSLLNSRTRKNYLAWYQQKPGQSPKLLIYWASTRESGVPDRFTGSGSGTDFTLTISSVQAEDLAVYYCKQSYILFTFGSGTQLEIKR

Target: mouse TrkB.hFc (mouse)
Assay: blocking ELISA: constant mouse TrkB.hFc (REGN2277) pre-mixed with antibody, binding to plate-coated BDNF

Binder	binding
B1	binds
B2	binds
